Fewer than 10 of roughly 6,900 compounds were called active. Calls come from the whole dose curve; as a rule, active = well fitted curve in the direction sought with a large enough effect; inconclusive = small, poorly fitted or top-dose-only effect, or another doubt; inactive = no such curve, though single readings can be large or run the other way. This is one part of the list.
Each compound was assayed against Metallo-beta-lactamase type 2 (Klebsiella pneumoniae) (UniProt C7C422) (assay: qHTS to identify inhibitors of the New Delhi Metallo-beta-lactamase (NDM): primary screen against the NCATS Gemini Collection). Settings: NDM-1 enzyme, meropenem hydrolysis, absorbance 300 nm; at 38.4 µM (top of the series) unless noted.
Method in brief: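 Meropenem hydrolysis (50 uM final) by 2 nM NDM-1 read as 300 nm absorbance after 30 min, following >30 min compound–enzyme preincubation in HEPES pH 7.0 with 1 uM ZnSO4 and 0.01% Tween20.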
Note: % of control where 0% means no effect.

By UniProt entry, the sequences of proteins in these tests, tags left out. Where a name states a change or a piece, a line headed by the entry shows the natural chain unless it says otherwise.
UniProt C7C422: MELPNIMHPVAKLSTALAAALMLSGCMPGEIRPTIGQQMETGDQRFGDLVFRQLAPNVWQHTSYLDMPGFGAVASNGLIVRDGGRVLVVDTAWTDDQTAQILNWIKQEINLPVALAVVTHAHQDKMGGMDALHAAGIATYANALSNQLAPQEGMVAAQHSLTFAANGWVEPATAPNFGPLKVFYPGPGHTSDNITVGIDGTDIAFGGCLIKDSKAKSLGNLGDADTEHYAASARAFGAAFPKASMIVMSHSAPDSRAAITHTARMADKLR

Activity % (negative = inhibition), inactive:
CCCCCC(=O)N1C[C@H](C(=O)NC)[C@H]2c3ccccc3N(CC3CC3)C(=O)[C@]21C -0.634% [at 16.1 µM]
COc1cccc(Nc2ccnc(-c3nnc(C)n3C3CCCCC3)c2)c1 14.6% [at 57.5 µM]
COc1ccc2[nH]c(=O)c(CCC(=O)NC(C)c3cn(C)nc3C)cc2c1 (configuration not stated) 7.95%
Cn1cnc(S(=O)(=O)N[C@H]2CCN(C(=O)c3ccco3)[C@H](C(=O)N[C@@H](Cc3cccs3)C(N)=O)C2)c1 4.77%
Cc1cc(CN2CCc3nc(C(C)C)nc(-c4ccc(Cl)cc4)c3CC2)no1 -2.53%
Cc1ocnc1C(=O)N1CCC2(CC1)CN(CC(C)c1ccccc1)C(=O)O2 (configuration not stated) 2.24%
O=C(CCc1nnn2c1CN(S(=O)(=O)c1ccccc1)CC2)NCc1ccccc1 0.831%
CC(=O)N1CCC(CC(=O)N2C[C@@H](Oc3ccccc3)C[C@H]2C(=O)N2CCOCC2)CC1 13.6%
Cc1n[nH]c(C)c1C(N)C(=O)NCc1ccccc1-n1ccnc1C (configuration not stated) -0.438%
Cc1cc(C(=O)N2CCC(OCC3CC3)C2)n(C)n1 (configuration not stated) -16.3%
CN(CC1(C)CCOCC1)C(=O)c1ccccn1 1.44%
Cc1cc(C(=O)NC2CC(c3cc(=O)[nH]cn3)C2)cc(S(N)(=O)=O)c1C (configuration not stated) -0.451%
OC[C@@H]1CNC[C@H]1c1nc(C2CC2)no1 -0.494%
O=C(c1coc(CN2CCN(C/C=C/c3ccccc3)CC2)n1)N1CCC[C@H]1CO -0.46%
Cc1cc(C)cc(NC(=O)N2CCC(CCc3nc(C4CCOCC4)no3)CC2)c1 -1.69%
CC(C)=CC(=O)N[C@H]1C[C@@H](C(=O)N[C@H](Cc2ccccc2)C(N)=O)N(C(=O)C=C(C)C)C1 2.83% [at 57.5 µM]
COc1cccc(CCC(=O)N2CC(F)(F)C[C@H]2c2nc(C)no2)c1 -5.3%
O=[S+]1([O-])NC2(CCCN(Cc3ccsc3)C2)CNc2ccccc21 (configuration not stated) 1.02%
CC(C)N(C)Cc1nnnn1CC(=O)N1CCC(CCn2cccn2)CC1 0.467%
Cc1nc(-c2ccc(CNC(=O)CN3CCN(c4ncccn4)CC3)cc2)no1 16.1%
COc1ccc(C(=O)NC[C@H]2Cn3ccnc3CO2)cc1 2.14% [at 77.1 µM]
C[C@]1(CO)[C@H]2Cc3sc(-c4ccsc4)nc3[C@@H](CC(=O)NCc3ccco3)[C@]2(C)CC[C@H]1O 9.27%
CC(=O)Nc1ccc(OCC(=O)NCc2ccccc2C)nc1 5.71%
CN(C)Cc1nnc(C2CC(NC(=O)c3cc(-c4cccn4C)n[nH]3)C2)n1C (configuration not stated) 7.92%
COc1ccc(-c2cc(C(=O)NCC3CC3)c3c(C4CCCN4)noc3n2)cc1 (configuration not stated) -2.32%
CCn1c(CO)nnc1C1CC(NC(=O)c2ccc3nc(C)oc3c2)C1 (configuration not stated) 0.377%
CN1C(=O)CO[C@H]2CN(c3ccc(C#N)cn3)C[C@H]21 17.9% [at 77.1 µM]
O=C1CC2(CCN([S+](=O)([O-])c3cccc(C(F)(F)F)c3)CC2)Oc2ccccc21 -0.493%
COc1ccc(C(=O)N2C[C@@H]3C[C@H](C2)c2ccc(NS(=O)(=O)c4ccc(OC)cc4)c(=O)n2C3)cc1 -3.47%
Cc1ccc(NC(=O)O[C@@H]2CC[C@]3(C)C(CC[C@@H](O)[C@H]3CC(=O)NCc3ccccc3)[C@]2(C)CO)cc1 (some centres not stated) 4.33%
CN(Cc1cccnc1)Cc1ccccc1C(F)(F)F 22.7% [at 57.5 µM]
CN1CC(=O)N(CC(=O)N[C@@H]2COCC[C@@H]2OCc2cscn2)C1=O 4.43%
COCCn1ccc2c(C3=CCOCC3)nc(-c3cccc4[nH]ccc34)cc21 30.7% [at 57.5 µM]
CC(C)CC(NC(=O)c1ccc(=O)[nH]c1)c1nnc2n1CCNCC2 (configuration not stated) 0.373%
COCCn1c(C)cnc1CCNS(=O)(=O)c1c(C)noc1C -3.98%
CC(NC1CCC2(CCNCC2)CC1)c1nc(-c2ccccn2)no1 (configuration not stated) -11.7%
COc1ccc(C(=O)N[C@H](Cc2ccccn2)C2CC(O)C2)cc1F (some centres not stated) -9.19%
CNC(=O)c1cccn2nccc12 7.22% [at 77.1 µM]
CCNC(=O)[C@@H]1C[C@H](n2cc(CN(C)C(=O)c3cccc(C)c3C)nn2)CN1 -10.1%
N#Cc1ccc(C(=O)N2CCOC[C@H](Oc3ccc(C(F)(F)F)cc3)C2)cc1 60.1% [at 57.5 µM]
O=C1N(Cc2cccc(F)c2F)CCCC1(O)CNCc1ccccc1 (configuration not stated) -0.81%
CCNC(=O)c1c(C)oc2c1CN(Cc1ccc(Br)o1)CC2 6.18%
COc1ccc(C)cc1NC(=O)N1CCCC1c1nncn1C1CCCC1 (configuration not stated) 2.5%
COC(=O)[C@H](NC(=O)[C@@H]1[C@@H](NC(=O)Nc2cccc(OC)c2)CCN1C(=O)c1cnccn1)C(C)C 0.399%
O=C(C1CCCN1C(=O)C1CC1)N1CCCC(c2nc3ncccc3[nH]2)C1 (configuration not stated) -1.31%
CCc1cnc(C2CCN(C(=O)OC(C)(C)C)CC2)[nH]1 27.6% [at 57.5 µM]
COc1cccc(C(=O)N2CCC3(CC2)CCN(CCc2ccccc2)c2ccccc2O3)c1 -1.69%
CCN1CCN(C(=O)CCC2CCN(S(=O)(=O)c3ccccc3)CC2)CC1 5.75%
CC(C)(C)c1coc([C@@H]2COCCN2Cc2ccc(C(=O)O)cc2)n1 -2.59% [at 57.5 µM]
Cn1ccc(NC(=O)[C@@H]2C[C@@H](c3ccc(F)cc3)N(CCOc3ccccc3)C2)n1 0.0325% [at 57.5 µM]
CCn1ccc(C(=O)N2CCc3nc(NC)nc(C(=O)N4CCCC4)c3C2)n1 8.64%
CCCc1nc(C(=O)N(C)Cc2cnn(-c3ccccc3C)c2)cs1 11.7%

Among those listed so far, 3 have a thiophene ring, fused or not:
Activity % (negative = inhibition), inactive:
Cn1cnc(S(=O)(=O)N[C@H]2CCN(C(=O)c3ccco3)[C@H](C(=O)N[C@@H](Cc3cccs3)C(N)=O)C2)c1 4.77%
O=[S+]1([O-])NC2(CCCN(Cc3ccsc3)C2)CNc2ccccc21 (configuration not stated) 1.02%
C[C@]1(CO)[C@H]2Cc3sc(-c4ccsc4)nc3[C@@H](CC(=O)NCc3ccco3)[C@]2(C)CC[C@H]1O 9.27%

— PubChem BioAssay AID1794845 (National Center for Advancing Translational Sciences (NCATS), 2023)
